Reference: paper PMC8748997
Results are given in words; binding and its absence hold for the method and conditions named. Binding can be weak; no strength is given. Where a sequence is shown, tags or fusion partners need not be part of it. For some assays here: In cells and extracts the contact can be indirect. Each block holds one binder with its values, some of them ahead of it.

Tests used:
[1] = target: Akt (mouse (endogenous in 32D clone 3)); test: co-IP; 32D clone 3 cells transfected with Flag-SOCS1 for 30 h; lysates cleared with protein G beads, incubated with 2 ug monoclonal anti-Akt or FLAG antibody or IgG overnight at 4 C; immunoblot
GST-Akt = test: pull-down; GST pull-down: GST-Akt and His-SOCS1 incubated in reaction buffer at 4 C for 1 h, then with GST-beads overnight at 4 C; washed four times with low-salt buffer; immunoblot with anti-His; both purified

binding [1]: binds
B1: Flag-SOCS1 (protein, UniProt O35716 1-212)
chain: MVARNQVAADNAISPAAEPRRRSEPSSSSSSSSPAAPVRPRPCPAVPAPAPGDTHFRTFRSHSDYRRITRTSALLDACGFYWGPLSVHGAHERLRAEPVGTFLVRDSRQRNCFFALSVKMASGPTSIRVHFQAGRFHLDGSRETFDCLFELLEHYVAAPRRMLGAPLRQRRVRPLQELCRQRIVAAVGRENLARIPLNPVLRDYLSSFPFQI

binding (GST-Akt): binds
B2: His-SOCS1 (protein, UniProt O35716 1-212)
chain: B1 chain
